# According to PubChem BioAssay AID540276 (National Center for Advancing Translational Sciences (NCATS), 2011):
# The campaign covered roughly 300,000 compounds. About 5,400 (1.8%) were called active. This list was built around the results that the source calls inconclusive (neither active nor inactive); the mix of calls is not that of the screen. The call rests on the fitted dose curve; tested in HEK293 cells. Where the call is inconclusive, the potency comes from a doubtful curve fit.
# Experiment: qHTS for inhibitors of binding or entry into cells for Marburg Virus
# Conditions: Marburg virus pseudotyped entry inhibition, cell reporter; activity change, negative = inhibition: at 37.8 µM (top of the series) unless noted
# On the % scale 0 is the no-effect control and ±100 the full control effect; potency means the concentration at half of the fitted maximal effect.
Structure (SMILES),Potency,"activity change, negative = inhibition"
COc1ccc(C(=O)NC2CC2)cc1OC1CCN(C/C=C/c2ccccc2)CC1,"inconclusive: 8.91 µM [inhibitor, partial curve, poor fit]",
Cc1nnc(SCc2ccc(C(=O)Nc3cc(Cl)ccc3C)cc2)s1,"inconclusive: 35.5 µM [inhibitor, single point]",
CC1=C(C(N)=O)C(c2ccco2)C(C(N)=O)=C(C)N1,,inactive: 10.6% [at 46.1 µM]
CC1(CCc2ccccc2)NC(=O)N(CC(=O)N2CCCCCC2)C1=O (stereo not drawn),"inconclusive: 35.5 µM [activator, single point]",
Clc1ccc(/C=C/c2ncc3ccccn23)cc1,"inconclusive: 12.6 µM [inhibitor, single point]",
Cc1ccc2nc(-c3cc(N)cc(N)c3)oc2c1,"inconclusive: 23.1 µM [inhibitor, partial curve, poor fit]",
C=CCNc1ncnc2c1cnn2-c1cccc(C)c1,,inactive: 5.78%
Cc1c(C(=O)NCC2CCCO2)oc2ccc3c(c12)C(=O)CC(C)(C)O3 (stereo not drawn),"inconclusive: 15.8 µM [inhibitor, single point]",
CCOC(=O)Cc1ccc(NC(=O)n2ncc3cc(Cl)ccc32)cc1,,inactive: 28% [at 46.1 µM]
COc1cc(/C=C/C(=O)O)ccc1OS(=O)(=O)c1ccc(C)cc1,,inactive: 1.6% [at 46.1 µM]
CC(C)(C)C(=O)Nc1ccc(N2CCN(S(C)(=O)=O)CC2)cc1,,inactive: 10.2% [at 46.1 µM]
CCc1ccc(S(=O)(=O)N2CCCC(N3CCN(c4ccc(OC)cc4)CC3)C2)cc1 (stereo not drawn),,inactive: -12.5%
CCOC(=O)C1(CCOC)CCN(CC(C)Cc2ccc3c(c2)OCO3)CC1 (stereo not drawn),"inconclusive: 10 µM [inhibitor, partial curve, poor fit]",
Cn1c(=O)c(=O)n(C)c2cc(N3CCCC3)c(NS(=O)(=O)c3ccc(F)cc3)cc21,"inconclusive: 6.31 µM [activator, single point]",
Cc1cccc(NC(=O)NNC(=O)c2sccc2-n2cccc2)c1,"inconclusive: 2.24 µM [inhibitor, full curve]",
COCCn1ccc2c(OCC(=O)NCc3ccc(C)cc3)cccc2c1=O,,inactive: 19.6%
N#Cc1ccc(C(=O)Nc2ccccc2-c2nc3ccccc3s2)c(F)c1,,inactive: -6.79% [at 46.1 µM]
COc1ccc2nc3ccccc3nc2c1NC(=O)c1ccc(Br)cc1,"inconclusive: 6.51 µM [activator, single point]",
Cc1cccc(N2CC(C)Cn3c2nc2c3c(=O)[nH]c(=O)n2C)c1 (stereo not drawn),"inconclusive: 22.4 µM [inhibitor, single point]",
COc1ccc(CCNc2cc(N3CCN(C(=O)c4ccccc4OC)CC3)ccc2[N+](=O)[O-])cc1OC,"inconclusive: 2 µM [inhibitor, partial curve, poor fit]",
COCCOC(=O)c1c(C)oc2c1cc(NS(=O)(=O)c1ccc(Cl)c(C)c1)c1ccccc12,"inconclusive: 17.8 µM [inhibitor, single point]",
Cc1cnc(CN(C)C(=O)c2ccc3oc(Cc4ccccc4)nc3c2)[nH]1,"inconclusive: 1.26 µM [activator, partial curve]",
Cc1cc(Nc2ccccc2)n(-c2ccccc2)n1,"inconclusive: 11.2 µM [activator, partial curve, poor fit]",

Structure (SMILES),Potency,"activity change, negative = inhibition"
Cc1ccc(S(=O)(=O)N2CCC(C(=O)NCCc3ccccc3)CC2)cc1,,inactive: 28.3%
Cc1cc(OCc2ccc(C(=O)NN=C3CCCC3)cc2)ccc1Cl,"inconclusive: 6.31 µM [activator, single point]",
CC1(C)Cc2c(cnn2-c2ccc(F)cc2)C(NC(=O)CCC(F)(F)F)C1 (stereo not drawn),"inconclusive: 35.5 µM [inhibitor, single point]",
O=C(COc1ccccc1Cl)NC(=O)NC1CCCC1,"inconclusive: 1.64 µM [activator, full curve, poor fit]",
COc1cc(C(=O)NCCC(=O)NCCCN2CCCCC2)cc(OC)c1OC,"inconclusive: 16.4 µM [activator, partial curve, poor fit]",
CCC(=O)N1CCc2cc(Br)cc(S(=O)(=O)N3CCC(C(=O)N(CC)CC)CC3)c21,,inactive: 0.794% [at 46.1 µM]
CCOC(=O)Nc1ccc2c(c1)N(C(=O)CCN1CCN3CCCC3C1)c1ccccc1CC2 (stereo not drawn),"inconclusive: 29.1 µM [inhibitor, single point]",
C1CCC(OCCN2CCN(CCOC3CCCCC3)CC2)CC1,"inconclusive: 29.1 µM [inhibitor, single point]",
CC1CCCN(CC(O)CN)C1 (stereo not drawn),"inconclusive: 0.164 µM [inhibitor, partial curve, poor fit]",
CCOc1ccc(-c2cc3nc(C4CCN(C(=O)OC(C)(C)C)CC4)c(C(=O)Nc4ccc(C)c(F)c4)cn3n2)cc1,"inconclusive: 6.31 µM [inhibitor, partial curve, poor fit]",
CCCC(=O)Oc1ccccc1C1SCc2cc(C)c(C)cc2CS1,"inconclusive: 31.6 µM [inhibitor, single point]",
Cc1ccc(C(=O)Nc2ccc(CN3CCS(=O)(=O)CC3)cc2)cc1C,,inactive: 25.6%
CCOC(=O)c1c(NC(=O)c2cc(-c3ccc(Cl)cc3)on2)sc2c1CCCC2,"inconclusive: 5.62 µM [activator, single point]",
Cc1cc2c(cc1C)CSC(c1ccccc1O)SC2,"inconclusive: 0.291 µM [inhibitor, full curve, poor fit]",
CCN(CC(=O)NCc1ccc2c(c1)OCO2)S(=O)(=O)c1ccc(F)cc1,,inactive: -3.11% [at 46.1 µM]
Cc1cc(C)c2cc(C#N)c(N3CCCC3)nc2c1,,inactive: 5.7%
C/C(Cl)=C\Cn1c(N2CCCC2)nc2c1c(=O)n(C)c(=O)n2C,"inconclusive: 35.5 µM [inhibitor, single point]",
CC1(C)Cc2ccccc2-c2nc3ccccc3c(=O)n21,"inconclusive: 8.91 µM [inhibitor, partial curve, poor fit]",
CCOc1ccc(-c2[nH]ncc2-c2ccc(OC)c(OC)c2)c(O)c1,"inconclusive: 1.3 µM [inhibitor, full curve]",
Cc1ccsc1C(=O)Nc1nccs1,,inactive: 13.1% [at 46.1 µM]
COc1ccc(N2N=NN(C(C)C)C2=C(Cl)c2nnnn2-c2ccc(OC)cc2)cc1,"inconclusive: 35.5 µM [inhibitor, single point]",
CCN(CC)S(=O)(=O)c1cc(NC(=O)CCCOc2ccc(C(C)=O)cc2)ccc1C,"inconclusive: 10 µM [inhibitor, partial curve, poor fit]",
CCSc1nc(=S)n(-c2ccccc2)c(C)c1C(C)=O,,inactive: -2.9%

Structure (SMILES),Potency,"activity change, negative = inhibition"
COc1ccccc1C(=O)c1ccccc1C(=O)c1ccccc1,,inactive: 11.4% [at 46.1 µM]
CCn1cc(CNC(=O)c2cc(COc3ccc(F)cc3Cl)on2)cn1,active: 14.6 µM,
COc1ccccc1NC(=O)C1=C(C)Nc2nc(-c3ccco3)nn2C1c1ccccc1 (stereo not drawn),"inconclusive: 17.8 µM [inhibitor, single point]",
Cc1ccccc1NC(=O)c1c(NC(=O)c2ccncc2)sc2c1CCC(C(C)(C)C)C2 (stereo not drawn),,inactive: -11.4% [at 46.1 µM]
NC(=S)N=Nc1c(O)n(Cc2ccc(Br)cc2)c2ccccc12,"inconclusive: 7.08 µM [inhibitor, full curve, poor fit]",
CCCCCC(=O)N1CC2(CC)CN(C(=O)CCCCC)CC(CC)(C1)C2=O,"inconclusive: 22.4 µM [inhibitor, partial curve, poor fit]",
Cc1oc2c(c1C(=O)N1CCC(C)CC1)C(=O)c1ccccc1C2=O,"inconclusive: 23.1 µM [inhibitor, partial curve, poor fit]",
Cc1ccc(-n2c(SCc3nc4ccccc4[nH]3)nnc2-c2ccncc2)cc1,"inconclusive: 0.355 µM [inhibitor, full curve]",
CC1=C(C(=O)NC2CC(C)(C)Cc3c2cnn3-c2ccc(C)cc2)OCCO1 (stereo not drawn),,inactive: -19.3%
COC(=O)c1[nH]c2c(c1C)C(=O)CC(c1cccc(OC)c1)C2 (stereo not drawn),"inconclusive: 1.26 µM [inhibitor, full curve]",
Cc1cccc(NS(=O)(=O)c2ccc(C(=O)NCC(c3ccccc3)N(C)C)cc2)c1C (stereo not drawn),"inconclusive: 10 µM [inhibitor, partial curve, poor fit]",
COc1ccc(C2C=C(C)Nc3nc4ccccc4n32)cc1 (stereo not drawn),"inconclusive: 7.08 µM [activator, full curve, poor fit]",
Cc1ccc(C(=O)N2CCN(c3cc(=O)[nH]nc3-c3ccccc3)CC2)cc1,,inactive: -1.48%
CCOc1ccc(-c2ncncc2-c2ccc(OC)cc2)c(O)c1,"inconclusive: 14.1 µM [inhibitor, single point]",
COc1ccc(-c2nc(SCC(=O)Nc3ccc4c(c3)OCO4)c(-c3ccccc3)[nH]2)cc1,,inactive: 8.64% [at 46.1 µM]
C/C(=N\Nc1ccc(F)cc1F)c1ccc(Br)s1,,inactive: 0.787% [at 46.1 µM]
CCCCn1c(N)c(N(CCC(C)C)C(=O)c2c(C)noc2C)c(=O)[nH]c1=O,"inconclusive: 31.6 µM [activator, partial curve, poor fit]",
COc1cc(-c2nc(-c3ccccc3)c(-c3cc([N+](=O)[O-])ccc3C)[nH]2)cc(OC)c1OC,"inconclusive: 35.5 µM [inhibitor, single point]",
Cc1ccc(NC(=O)c2cncc(Br)c2)cc1S(=O)(=O)N(C)C,"inconclusive: 11.2 µM [inhibitor, single point]",
O=C(Nc1ccccc1SCC1CSc2nc3ccccc3c(=O)n21)c1cccc(Cl)c1 (stereo not drawn),"inconclusive: 2.51 µM [inhibitor, full curve, poor fit]",
COc1ccc(NC(=S)N2CCC(c3nc4ccc(Cl)cc4[nH]3)CC2)c(OC)c1,"inconclusive: 0.461 µM [inhibitor, full curve, poor fit]",
O=C(Nc1ccc2sc3ccccc3c(=O)c2c1)c1ccccc1Cl,"inconclusive: 12.6 µM [inhibitor, single point]",

# Arranged by SMILES length (falling): some entries from above
Structure (SMILES),Potency,"activity change, negative = inhibition"
COc1ccc(NC(=S)N2CCC(c3nc4ccc(Cl)cc4[nH]3)CC2)c(OC)c1,"inconclusive: 0.461 µM [inhibitor, full curve, poor fit]",
O=C(Nc1ccccc1SCC1CSc2nc3ccccc3c(=O)n21)c1cccc(Cl)c1 (stereo not drawn),"inconclusive: 2.51 µM [inhibitor, full curve, poor fit]",
CC1=C(C(=O)NC2CC(C)(C)Cc3c2cnn3-c2ccc(C)cc2)OCCO1 (stereo not drawn),,inactive: -19.3%
Cc1ccc(-n2c(SCc3nc4ccccc4[nH]3)nnc2-c2ccncc2)cc1,"inconclusive: 0.355 µM [inhibitor, full curve]",
NC(=S)N=Nc1c(O)n(Cc2ccc(Br)cc2)c2ccccc12,"inconclusive: 7.08 µM [inhibitor, full curve, poor fit]",
